PubChem BioAssay AID1671195 – Yale University | 2021
In all, the deposit lists about 22,000 reagents; below is an unselected part. In the full data, about 1,510 (6.9%) got an active call. 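Active includes knockdowns raising or lowering LDL uptake; positive z-scores mean more uptake, negative mean less.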

Aim: 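Regulators of LDL receptor activity judged by labelled LDL uptake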 (primary screen)
System: human Huh7 hepatoma cells
Reagent: siRNA pool against human genes, 18 nM
Time to read-out: about 2 to 2.5 days of knockdown, then 8 h LDL uptake
Challenge: DiI-labelled LDL at 30 µg/ml for 8 h, in lipoprotein-deficient serum medium
Measured: 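Per-cell DiI-LDL intensity by automated imaging; well means scaled to the plate median and given as a robust z-score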
Direction: robust z-score: higher = more LDL uptake after knockdown
Active means: 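a gene counts as active if at least two replicate z-scores exceed ±2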

The opening 2 entries, ahead of the listing:
MYL6P5
- robust z-score, replicate 1: 2.4
- robust z-score, replicate 2: 0.989
- robust z-score, replicate 3: 1.34
- Outcome: inactive

TERB2
- robust z-score, replicate 1: -0.716
- robust z-score, replicate 2: -1.79
- robust z-score, replicate 3: -1.03
- Outcome: inactive

Main list, from the first entry:
MYL6P5
- robust z-score, replicate 1: 2.4
- robust z-score, replicate 2: 0.989
- robust z-score, replicate 3: 1.34
- Outcome: inactive

TERB2
- robust z-score, replicate 1: -0.716
- robust z-score, replicate 2: -1.79
- robust z-score, replicate 3: -1.03
- Outcome: inactive

MSI1
- robust z-score, replicate 1: -0.296
- robust z-score, replicate 2: 1.16
- robust z-score, replicate 3: -0.529
- Outcome: inactive

GPC6
- robust z-score, replicate 1: 2.8
- robust z-score, replicate 2: 2.5
- robust z-score, replicate 3: 1.44
- Outcome: active

WDR83OS
- robust z-score, replicate 1: 0.839
- robust z-score, replicate 2: 0.991
- robust z-score, replicate 3: 1.79
- Outcome: inactive

TATDN2
- robust z-score, replicate 1: 1.27
- robust z-score, replicate 2: 0.516
- robust z-score, replicate 3: 1.99
- Outcome: inactive

KIAA1586
- robust z-score, replicate 1: -0.0464
- robust z-score, replicate 2: 0.00712
- robust z-score, replicate 3: 0.319
- Outcome: inactive

LOC389248 (retired record)
- robust z-score, replicate 1: 0.668
- robust z-score, replicate 2: 1.37
- robust z-score, replicate 3: 0.559
- Outcome: inactive

SUDS3P1
- robust z-score, replicate 1: -1.07
- robust z-score, replicate 2: -0.513
- robust z-score, replicate 3: -0.789
- Outcome: inactive

KNDC1
- robust z-score, replicate 1: 0.455
- robust z-score, replicate 2: 0.123
- robust z-score, replicate 3: 0.186
- Outcome: inactive

PNPLA2
- robust z-score, replicate 1: 0.358
- robust z-score, replicate 2: 0.656
- robust z-score, replicate 3: 0.696
- Outcome: inactive

ZFYVE16
- robust z-score, replicate 1: -0.0584
- robust z-score, replicate 2: -0.351
- robust z-score, replicate 3: -0.305
- Outcome: inactive

TAAR5
- robust z-score, replicate 1: 0.136
- robust z-score, replicate 2: 0.42
- robust z-score, replicate 3: 0.361
- Outcome: inactive

NXNL2
- robust z-score, replicate 1: -0.446
- robust z-score, replicate 2: -0.718
- robust z-score, replicate 3: -1.12
- Outcome: inactive

ZNF185
- robust z-score, replicate 1: -0.588
- robust z-score, replicate 2: -2.31
- robust z-score, replicate 3: -1.44
- Outcome: inactive

FDCSP
- robust z-score, replicate 1: 0.836
- robust z-score, replicate 2: 1.14
- robust z-score, replicate 3: 1.5
- Outcome: inactive
